# Part of at least one peptide drawing is inferred or uncertain, most often the ends.
# Biological target: T1, NPR-B (Mus musculus, UniProt Q6VVW5)
# T1 construct: These cells express endogenously NPR-B on the cell surface; endogenous in cells; host or cells: NIH-3T3 (murine embryo fibroblasts)
# T1 sequence (Q6VVW5 17-1047): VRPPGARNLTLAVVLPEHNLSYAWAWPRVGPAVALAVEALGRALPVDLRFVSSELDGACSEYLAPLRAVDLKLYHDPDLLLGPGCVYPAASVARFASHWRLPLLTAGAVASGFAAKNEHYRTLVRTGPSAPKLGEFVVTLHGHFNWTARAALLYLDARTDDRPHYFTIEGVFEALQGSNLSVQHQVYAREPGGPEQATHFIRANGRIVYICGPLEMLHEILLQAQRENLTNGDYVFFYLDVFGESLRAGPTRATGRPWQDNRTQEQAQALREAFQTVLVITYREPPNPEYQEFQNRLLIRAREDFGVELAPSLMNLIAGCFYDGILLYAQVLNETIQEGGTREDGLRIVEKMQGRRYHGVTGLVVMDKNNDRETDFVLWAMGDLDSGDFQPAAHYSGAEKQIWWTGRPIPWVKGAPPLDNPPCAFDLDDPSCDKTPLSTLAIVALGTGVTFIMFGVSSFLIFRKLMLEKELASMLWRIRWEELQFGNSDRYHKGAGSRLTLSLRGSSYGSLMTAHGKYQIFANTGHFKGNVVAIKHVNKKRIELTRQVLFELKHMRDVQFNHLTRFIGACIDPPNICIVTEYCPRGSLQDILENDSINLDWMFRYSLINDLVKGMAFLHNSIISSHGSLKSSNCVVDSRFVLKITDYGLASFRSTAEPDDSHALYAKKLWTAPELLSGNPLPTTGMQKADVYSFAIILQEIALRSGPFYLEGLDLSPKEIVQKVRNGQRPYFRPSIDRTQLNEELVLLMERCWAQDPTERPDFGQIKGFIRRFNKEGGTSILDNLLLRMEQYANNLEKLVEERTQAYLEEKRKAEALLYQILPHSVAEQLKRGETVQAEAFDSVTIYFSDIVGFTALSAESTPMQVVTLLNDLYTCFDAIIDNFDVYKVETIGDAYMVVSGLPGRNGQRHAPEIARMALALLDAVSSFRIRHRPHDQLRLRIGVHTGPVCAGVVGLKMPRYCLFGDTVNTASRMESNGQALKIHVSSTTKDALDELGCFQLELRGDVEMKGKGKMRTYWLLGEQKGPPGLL
# Assay: Functional cGMP stimulation in NIH-3T3 cells with CNP variants
# Format: cell-based, Murine
# Conditions: CNP-38 released from 11i after 7 d under physiological conditions, isolated by RP-HPLC
# Description: Functional activity of CNP variants were determined in a cell-based assay with NIH-3T3 cells (Murine Embryo Fibroblast cell line). These cells express endogenously NPR-B on the cell surface. Stimulation of NPR-B with CNP leads to intracellular production of the second messenger cGMP which is detected with a commercially available cGMP assay. NIH-3T3 cells were routinely cultured in DMEM F-12 medium with 5% FBS and 5 mM glutamine at 37° C. and 5% CO2. For each assay, 50,000 cells were resuspended in stimulation buffer (Dulbecco's PBS with IBMX) and incubated with the CNP variants in different concentrations. CNP (dilutions were made in PBS with 0.2% BSA). After incubation of 30 min at 37° C. and 5% CO2, the cells were lyzed and cGMP levels were determined with a commercially available cGMP TR-FRET assay (Cisbio, cGMP kit, Cat. No. 62GM2PEB). PEGylated CNP variants were always characterized in comparison with the non-PEGylated version in the same experiment batch. If possible, evaluation of the residual activity was done via the EC50- parameter of the resulting dose-response curve (restricted model with common slope).
# After 7 d, released CNP-38 was isolated by RP-HPLC and analyzed for bioactivity as described in Example 22.
smiles,measurement,value
CC[C@H](C)[C@@H]1NC(=O)[C@H](CCCNC(=N)N)NC(=O)[C@H](CC(=O)O)NC(=O)[C@H](CC(C)C)NC(=O)[C@H](CCCCN)NC(=O)[C@H](CC(C)C)NC(=O)CNC(=O)[C@H](Cc2ccccc2)NC(=O)[C@@H](NC(=O)CNC(=O)[C@H](CCCCN)NC(=O)[C@H](CO)NC(=O)[C@H](CC(C)C)NC(=O)CNC(=O)[C@H](CCCCN)NC(=O)[C@H](CCCCN)NC(=O)[C@H](CC(N)=O)NC(=O)[C@H](C)NC(=O)CNC(=O)[C@H](CCCCN)NC(=O)[C@H](Cc2ccc(O)cc2)NC(=O)[C@H](CCCCN)NC(=O)[C@H](CCCNC(=N)N)NC(=O)[C@H](C)NC(=O)[C@H](CC(N)=O)NC(=O)[C@@H]2CCCN2C(=O)[C@H](Cc2c[nH]cn2)NC(=O)[C@H](CCC(=O)O)NC(=O)[C@H](CCC(N)=O)NC(=O)[C@@H](N)CC(C)C)CSSC[C@@H](C(=O)O)NC(=O)CNC(=O)[C@H](CC(C)C)NC(=O)CNC(=O)[C@H](CO)NC(=O)[C@H](CCSC)NC(=O)[C@H](CO)NC(=O)CNC1=O [CNP-38],EC50 compound/EC50 CNP-38,1
